# Measurements from ChEMBL document CHEMBL1806480, “New condensed pyrroles of potential biological interest syntheses and structure-activity relationship studies” (2011).
# Test system: Candida albicans
# Experiment: Antimicrobial activity against Candida albicans ATCC 10231 after 24 hrs by microdilution technique
# Format: functional
# Conditions: ATCC 10231, 24 h
structure (smiles),measurement,value
OC(Cn1cncn1)(Cn1cncn1)c1ccc(F)cc1F [FLUCONAZOLE],MIC,512 µg/mL
